The exact form of at least one protein or probe is not confirmed. Weaker means in comparison with the reference protein, sequence or condition of that experiment. Tags and fusion partners may be left off the protein sequences shown.
Molecular target: T1, Androgen receptor DNA-binding domain (AR-DBD) (UniProt P10275)
T1 sequence (looked up, limits assumed): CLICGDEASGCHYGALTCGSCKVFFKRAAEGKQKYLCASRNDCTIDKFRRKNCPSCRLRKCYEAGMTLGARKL
Test: EMSA
Conditions: Odyssey infrared EMSA kit (LI-COR): 2.5 mM DTT/0.25% Tween 20, poly(dI.dC), room temperature 30 min, increasing protein; 6% TBE native gel; salt and pH not stated; recombinant protein; label: 5' IRDye700 on both strands

| Sequence | binding result |
| --- | --- |
| GCGACTTACATTGGCTGAGGGA (double strand) [SDHA ARE mutant probe (SDHA-M)] | binds more weakly |
| AGAGCTCCCTACGTTTTCCCAACA (double strand) [SDHB ARE mutant probe (SDHB-M)] | binds more weakly |
